The exact form of at least one protein or probe is not confirmed. Where cells or extracts were used, other partners may take part. No signal at the amounts used counts as a negative. The comparison behind a weaker result is the experiment's own reference, which may not be listed here.
Molecular target: native dIno80 in nuclear extract (UniProt Q9VDY1)
Assay: competition with a labelled probe
Details: protein in an extract

By UniProt entry, the sequences of proteins in these tests, tags left out.
UniProt Q9VDY1, whole entry: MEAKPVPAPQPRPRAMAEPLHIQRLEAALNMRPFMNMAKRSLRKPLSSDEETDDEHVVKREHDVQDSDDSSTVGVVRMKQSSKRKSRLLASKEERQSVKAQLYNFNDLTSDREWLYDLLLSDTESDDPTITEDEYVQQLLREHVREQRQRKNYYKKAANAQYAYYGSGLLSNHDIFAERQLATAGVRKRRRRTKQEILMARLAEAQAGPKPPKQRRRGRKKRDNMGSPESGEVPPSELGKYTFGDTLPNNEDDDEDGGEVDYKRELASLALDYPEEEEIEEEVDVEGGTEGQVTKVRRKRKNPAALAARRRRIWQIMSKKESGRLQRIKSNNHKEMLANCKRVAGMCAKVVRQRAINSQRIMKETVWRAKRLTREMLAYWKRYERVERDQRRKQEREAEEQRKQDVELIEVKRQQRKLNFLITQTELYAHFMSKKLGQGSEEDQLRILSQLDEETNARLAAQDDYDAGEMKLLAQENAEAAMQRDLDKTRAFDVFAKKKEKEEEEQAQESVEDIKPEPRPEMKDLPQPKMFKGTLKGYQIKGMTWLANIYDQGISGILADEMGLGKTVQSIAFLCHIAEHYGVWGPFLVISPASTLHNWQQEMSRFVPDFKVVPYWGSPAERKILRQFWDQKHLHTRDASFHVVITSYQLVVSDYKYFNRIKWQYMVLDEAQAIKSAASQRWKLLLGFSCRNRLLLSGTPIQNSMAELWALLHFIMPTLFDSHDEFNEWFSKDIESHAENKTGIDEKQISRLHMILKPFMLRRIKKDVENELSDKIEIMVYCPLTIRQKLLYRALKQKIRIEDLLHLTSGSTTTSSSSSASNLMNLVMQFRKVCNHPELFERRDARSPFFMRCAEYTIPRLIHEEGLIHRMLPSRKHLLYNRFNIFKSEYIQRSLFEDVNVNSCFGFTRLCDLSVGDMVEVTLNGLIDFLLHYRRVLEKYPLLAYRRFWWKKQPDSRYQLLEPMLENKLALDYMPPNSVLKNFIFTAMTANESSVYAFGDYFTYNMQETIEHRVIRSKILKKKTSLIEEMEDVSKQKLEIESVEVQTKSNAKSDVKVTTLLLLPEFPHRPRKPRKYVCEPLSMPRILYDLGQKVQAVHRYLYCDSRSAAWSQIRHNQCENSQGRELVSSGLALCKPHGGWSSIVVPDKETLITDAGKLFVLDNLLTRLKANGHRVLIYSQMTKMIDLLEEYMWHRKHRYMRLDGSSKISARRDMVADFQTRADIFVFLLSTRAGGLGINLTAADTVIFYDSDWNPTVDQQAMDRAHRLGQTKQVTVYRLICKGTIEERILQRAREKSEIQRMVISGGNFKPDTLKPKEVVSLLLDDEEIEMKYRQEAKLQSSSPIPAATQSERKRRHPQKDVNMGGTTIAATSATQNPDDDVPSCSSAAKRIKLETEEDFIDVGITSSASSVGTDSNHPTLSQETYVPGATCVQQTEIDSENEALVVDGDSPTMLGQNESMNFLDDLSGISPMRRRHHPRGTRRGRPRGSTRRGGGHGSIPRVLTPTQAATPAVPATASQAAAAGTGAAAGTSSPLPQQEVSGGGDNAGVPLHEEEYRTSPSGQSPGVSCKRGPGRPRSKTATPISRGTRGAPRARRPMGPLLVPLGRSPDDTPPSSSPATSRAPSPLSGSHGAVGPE

Sequence	binding result (vs Cy3-Hs.con, EMSA)	binding result (unlabeled Hs.con vs Cy3-V1, EMSA)
CCCCCGTGCTACCCCCGTGCTACCCCCGTGCTA (double strand) [Rb (randomized Hs.con, repeated thrice)]	no binding	
CCCCGTCAGCCCCCCGTCAGCCCCCCGTCAGCC (double strand) [Hs.con (3 copies of Ino80 motif, 33-mer)]		binds more weakly
